“Also recorded” adds a separate entry of the source. At least one peptide structure holds a part that was inferred or is arguable (an end, a ring closure or a residue). Non-standard residues stand in square brackets, D forms with d. Residues, ends and D or L forms follow the SMILES beside them. Cha = N[C@@H](CC1CCCCC1)C(=O)O
Tests used:
[1] = tested on: PyCS.1; set-up: species or system P. yoelii; settings: in vivo
[2] = tested on: P. yoelii 17XNL sporozoites; settings: in vivo
[3] = tested on: (QGPGAP)2; set-up: species or system P. yoelii; settings: in vivo
[4] = tested on: P. falciparum sporozoites; experiment: Inhibition of liver stage development assay (ILSDA), human hepatocytes infected with P. falciparum sporozoites; type: cell-based; settings: sera of C57BL/6 mice immunized with peptide in CFA/IFA, final dilution 1:100
Procedure: (§1) In certain experiments, peptides were emulsified in complete Freund's adjuvant (CFA) and injected subcutaneously (S.C.) at the base of the tail in 100 μl volume containing 100 μg of peptide. Mice were boosted with 100 μg of peptide emulsified in 100 μl of incomplete Freund's adjuvant (IFA) 1 month later. Mice were bled just prior to boosting, and 2 weeks after boosting.
Human hepatocytes were isolated from nontransplantable liver tissue donated for research. […] The hepatocytes were allowed to attach and spread overnight with the media being changed the following day.
(§2) The 17XNL (nonlethal) strain of P. yoelii or the NF54 strain of P. falciparum were used for murine and human hepatocyte in vitro infections, respectively.
(§3) Briefly, 25 μl of the serum samples, diluted to 2× their final concentration, were added to triplicate chamber-slide wells. P. yoeilli or P. falciparum sporozoites, 75,000/well, were then added in a volume of 25 μl to the mouse or human hepatocyte cultures respectively. The cultures were incubated for 3 h, then washed extensively with fresh medium to remove unattached sporozoites. The infected hepatocytes were then incubated for a further 2 (P. yoelii) or 5 days (P. falciparum) with the medium being changed each day of culture. […] Schizonts were counted from the triplicate cultures and the percent inhibition determined as follows: control−test/control×100. […]

[5] = tested on: air-dried P. yoelii sporozoites; settings: in vivo
[6] = tested on: P. yoelii sporozoites; experiment: Inhibition of liver stage development assay (ILSDA), mouse hepatocytes infected with P. yoelii sporozoites; type: cell-based; settings: sera of immunized mice
Procedure: as §1
All cell culture reagents were obtained from quality Biological, Gaithersburg, Md. The slides were incubated overnight at 37° C. in a 5% CO2/95% air environment. The medium was changed the following day and fresh medium containing dexamethasone (7×10^−5) was added to the cultures.
as §2
as §3, with “sporozoites.” for “sporozoites. The infected hepatocytes were then incubated for a further 2 (P. yoelii) or 5 days (P. falciparum) with the medium being changed each day of culture.”

[7] = tested on: DR3; set-up: species or system human; settings: read-out: Binding Activity DR3, IC50
[8] = tested on: DR7; set-up: species or system human; settings: read-out: Binding Activity DR7, IC50
[9] = tested on: DR2w2b; set-up: species or system human; settings: read-out: Binding Activity DR2wB2, IC50
[10] = tested on: DQ3.1; set-up: species or system human; settings: read-out: Binding Activity DQ3.1, IC50
[11] = tested on: DR5; set-up: species or system human; settings: read-out: Binding Activity DR5, IC50

Row | SMILES | ELISA PyCS.1 [1] | % Protected [2] | Infected/challenged [2] | ELISA (QGPGAP)2 [3] | % Inhibition [4] | Mean schizonts/well ± S.D. [4] | IFAT Sporozoites [5] | levels of antibodies against sporozoites and the PyCSP (immunogenicity, in words) [5] | Mean schizonts/well + S.D. ([6]; dilution 1:100) | Mean schizonts/well + S.D. ([6]; dilution 1:200) | IC50 [7] | IC50 [8] | IC50 [9] | IC50 [10] | IC50 [11]
1 | CC(C)C[C@H](NC(=O)[C@@H](NC(=O)[C@H](Cc1c[nH]c2ccccc12)NC(=O)[C@H](C)NC(=O)[C@H](C)NC(=O)[C@@H](NC(=O)[C@H](CC1CCCCC1)NC(=O)[C@H](CCCCN)NC(=O)[C@@H](C)N)C(C)C)[C@@H](C)O)C(=O)N[C@@H](CCCCN)C(=O)N[C@@H](C)C(=O)N[C@H](C)C(=O)N[C@@H](CCC(N)=O)C(=O)NCC(=O)N1CCC[C@H]1C(=O)NCC(=O)N[C@@H](C)C(=O)N1CCC[C@H]1C(=O)N[C@@H](CCC(N)=O)C(=O)NCC(=O)N1CCC[C@H]1C(=O)NCC(=O)N[C@@H](C)C(=O)N1CCC[C@H]1C(=O)N[C@@H](CCC(N)=O)C(=O)NCC(=O)N1CCC[C@H]1C(=O)NCC(=O)N[C@@H](C)C(=O)N1CCC[C@H]1C(=O)N[C@@H](CCC(N)=O)C(=O)NCC(=O)N1CCC[C@H]1C(=O)NCC(=O)N[C@@H](C)C(=O)N1CCC[C@H]1C(=O)NCC(=O)NCC(=O)N[C@@H](CO)C(=O)O [PADRE ®-PyB, aKXVAAWTLKAa(QGPGAP)4GGS] (H-[dA]K[Cha]VAAWTLKA[dA]QGPGAPQGPGAPQGPGAPQGPGAPGGS-OH; N-terminus and C-terminus assumed) | 25.6 | 75% | 2/8 | 25.6 | did not inhibit; also recorded: no significant effect | 84 ± 8.5 schizonts/well | 3.2 | at least as high as those induced in mice that received 25 μg of the PyCSP-MAP | 7.6 + 1.2 schizonts/well | 96 + 2 schizonts/well |  |  |  |  | 
2 | CC[C@H](C)[C@H](NC(=O)CNC(=O)[C@@H](NC(=O)[C@H](Cc1ccccc1)NC(=O)[C@H](CCCCN)NC(=O)[C@H](CO)NC(=O)[C@H](CC(N)=O)NC(=O)[C@H](C)NC(=O)[C@H](CCCCN)NC(=O)[C@@H](NC(=O)[C@H](Cc1ccc(O)cc1)NC(=O)[C@H](N)CCC(N)=O)[C@@H](C)CC)[C@@H](C)CC)C(=O)N[C@H](C(=O)N[C@@H](CCC(=O)O)C(=O)N[C@H](C)C(=O)O)[C@@H](C)O [553.02, reference compound] |  |  |  |  |  |  |  |  |  |  | > 10 µM | 49 nM | 25.3 nM | > 10 µM | 83.3 nM

From patent US20050049197A1, “Induction of immune response against desired determinants” (Epimmune Inc., priority 1993, published 2005)
